Measured data: PubChem BioAssay AID504764 (Drosophila RNAi Screening Center, 2011)
Screen: 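Genes whose knock-down alters Notch-dependent transcription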 (primary screen). Cells: Drosophila Kc167 cells. Knock-down reagent: long dsRNA against Drosophila genes. Time to read-out: about 5 days (4 days dsRNA, then 24 h after transfection). Challenge: transfection of constitutively active membrane-tethered Notch lacking the extracellular domain, read 24 h later. Detection: 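Firefly luciferase from an E(spl)m3 reporter with active Notch, plus control-promoter and uninduced reporter wells for normalisation; unnormalised counts, duplicate wells a and b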. Reading the numbers: induced reporter light, run 1, well a and induced reporter light, run 1, well b: higher = more light from the Notch target reporter with active Notch; control promoter light, run 1, well a and control promoter light, run 1, well b: higher = more light from the viral control promoter (cell number, transfection, viability); uninduced reporter light, run 1, well a: higher = more light from the Notch target reporter without active Notch. Call rule: 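Wells with low control signal or poorly matching duplicates excluded; duplicates averaged; per source plate, z beyond ±2 for induced/control log2 ratio or beyond ±1.8 for induced/uninduced marks a hit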. Calls: active = modifier hit (raised or lowered Notch signal); inactive = not a hit.
In all, the deposit lists about 22,000 reagents; this is an unselected part of those with a known target gene and a result. Of all reagents, 403 (1.9%) were called active. 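Unnormalised raw counts per well; ratio z-scores behind the hit calls and whether each hit raises or lowers signal are not deposited.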 The record does not give: the amount of reagent.

gene knocked down	dsRNA	induced reporter light, run 1, well a	induced reporter light, run 1, well b	control promoter light, run 1, well a	control promoter light, run 1, well b	uninduced reporter light, run 1, well a	call
CG8067 (GeneID 36552)	DRSC07065	1.40e5	1.62e5	1.36e5	1.21e5	10465	inactive
disco (GeneID 32579)	DRSC20323	1.41e5	98375	1.39e5	1.43e5	14620	inactive
Spp (GeneID 33227)	DRSC00328	1.92e5	2.42e5	2.00e5	2.05e5	18675	inactive
EMC8-9 (GeneID 37635)	DRSC04380	2.19e5	1.91e5	1.30e5	1.78e5	15085	inactive
nan (GeneID 39571)	DRSC10551	1.55e5	1.93e5	2.78e5	2.31e5	10542	inactive
Ak1 (GeneID 39396)	DRSC10248	1.73e5	1.64e5	2.63e5	1.72e5	7228	inactive
CenG1A (GeneID 34803)	DRSC02538	87690	1.01e5	1.21e5	1.43e5	8425	inactive
CenG1A (GeneID 34803)	DRSC03505	1.52e5	1.35e5	1.82e5	1.46e5	11675	inactive
CenG1A (GeneID 34803)	DRSC03506	1.20e5	1.34e5	1.65e5	1.63e5	12750	inactive
pasha (GeneID 43728)	DRSC15295	94825	1.32e5	1.09e5	1.30e5	7835	inactive
CG2736 (GeneID 37998)	DRSC04314	2.07e5	1.96e5	1.64e5	1.87e5	15532	inactive
CG6163 (GeneID 39274)	DRSC10595	1.69e5	1.60e5	2.00e5	1.49e5	7410	inactive
bsd (GeneID 36302)	DRSC05953	69565	86185	89870	1.19e5	7165	inactive
CNPYb (GeneID 40084)	DRSC09845	1.42e5	1.73e5	81280	87835	12235	inactive
Cpr11B (GeneID 32203)	DRSC19859	1.47e5	1.45e5	1.87e5	2.13e5	12555	inactive
CG17121 (GeneID 42721)	DRSC15176	1.55e5	1.64e5	2.05e5	1.89e5	13135	inactive
SppL (GeneID 43128)	DRSC15228	1.52e5	1.38e5	1.66e5	1.81e5	13620	inactive
Bem46 (GeneID 44441)	DRSC00275	2.52e5	1.78e5	2.98e5	2.37e5	14978	inactive
Acsx1L (GeneID 42351)	DRSC16014	1.88e5	1.40e5	1.55e5	1.65e5	15095	inactive
Pbp45 (GeneID 41920)	DRSC16509	2.38e5	2.68e5	2.14e5	2.25e5	15660	inactive
CG9346 (GeneID 37381)	DRSC04542	72885	68515	45415	49565	4565	inactive
Nepl9 (GeneID 35020)	DRSC02255	1.80e5	1.76e5	1.79e5	2.05e5	14450	inactive
Pdhb (GeneID 43437)	DRSC14420	1.84e5	1.76e5	2.04e5	1.92e5	11165	inactive
CG2113 (GeneID 38356)	DRSC08554	1.42e5	1.22e5	2.23e5	1.53e5	12910	inactive
CG11563 (GeneID 43735)	DRSC14327	1.40e5	1.37e5	2.28e5	2.06e5	8840	inactive
CG10911 (GeneID 37058)	DRSC06008	1.17e5	92755	1.07e5	94550	5820	inactive
CG8915 (GeneID 32715)	DRSC20119	1.10e5	1.05e5	92385	44170	8650	inactive
CG1631 (GeneID 33029)	DRSC20535	78585	68165	97680	1.03e5	9715	inactive
Uhg3 (GeneID 3772557)	DRSC22963						inactive
SCAR (GeneID 34519)	DRSC03426	1.06e5	1.32e5	71425	92095	15290	inactive
mAcon1 (GeneID 44149)	DRSC01853	36370	28235	44220	42325	2380	inactive
Hs2st (GeneID 44433)	DRSC03348	2.09e5	1.91e5	1.92e5	2.28e5	16940	inactive
CG3088 (GeneID 39115)	DRSC10352	1.06e5	1.15e5	85240	49260	9300	inactive
CG17260 (GeneID 33519)	DRSC00497	98440	81995	76465	96900	7235	inactive
Muc4B (GeneID 31368)	DRSC18062	1.45e5	1.17e5	3.18e5	2.47e5	9445	inactive
Muc4B (GeneID 31368)	DRSC18063	1.31e5	1.60e5	2.26e5	1.93e5	10960	inactive
VhaM9.7-b (GeneID 40389)	DRSC11841	1.41e5	94005	1.13e5	81555	9200	inactive
beat-Vb (GeneID 41583)	DRSC12940	1.78e5	1.57e5	1.80e5	1.81e5	11005	inactive
beat-Vb (GeneID 41583)	DRSC14844	2.26e5	2.24e5	3.83e5	3.24e5	13805	inactive
beat-Vb (GeneID 41583)	DRSC14845	11880	11390	47195	29330	1332	inactive
CG13248 (GeneID 40254)	DRSC11696	1.70e5	1.25e5	1.04e5	1.03e5	8745	inactive
Orc2 (GeneID 41703)	DRSC16776	1.44e5	1.29e5	96700	82535	9920	inactive
Lhr (GeneID 36957)	DRSC06759	74505	74810	1.32e5	1.77e5	7590	inactive
frtz (GeneID 33349)	DRSC00512	70600	67940	41090	40815	6915	inactive
CG32026 (GeneID 317829)	DRSC08950	1.68e5	1.59e5	1.78e5	1.91e5	11820	inactive
CG11349 (GeneID 38552)	DRSC08179	1.06e5	87390	98410	89305	4005	inactive
CG7289 (GeneID 33372)	DRSC00697	2.27e5	2.15e5	2.06e5	1.61e5	21835	inactive
tfc (GeneID 38141)	DRSC07953	1.71e5	1.54e5	1.45e5	1.34e5	15275	inactive
tfc (GeneID 38141)	DRSC07954	1.80e5	1.54e5	1.23e5	1.32e5	14875	inactive
tfc (GeneID 38141)	DRSC08626	1.08e5	1.22e5	1.97e5	2.02e5	8075	inactive
